Laboratory results: patent US20180369230A1, “TARGETED SELECTION OF PATIENTS FOR TREATMENT WITH SPECIFIC CORTISTATIN DERIVATIVES” (President and Fellows of Harvard College, priority 2015, published 2018)

Test system: SET-2 cells
Test: Gene expression, gene set enrichment analysis (GSEA)
Type: cell-based, human
Settings: SET-2, 4 h 25 nM
Procedure: Leukemia cells were plated (12-well) in triplicate at 500,000-800,000 cells per ml and incubated in the presence of vehicle (0.1% DMSO) or CA (25 nM 3 h for K562, MOLM-14 and MV4;11; 10 nM 24 h for MOLM-14; 25 nM 4 h for SET-2, n=3 for each cell line). Cells were then washed twice with cold PBS, and snap frozen. RNA was isolated (RNeasy Plus Microkit, Qiagen or TRIzol, Life Technologies), processed, and, for K562, MOLM-14 and MV4;11, hybridized to the Human U133 Plus 2.0 microarray (Affymetrix). Microarrays were processed with Bioconductor packages affyQCReport for quality control and affy for background correction, summarization, and normalization using rma. […] SET-2 and HCT 116 gene expression was measured by RNA-seq. […] Reads were aligned in two passes, first with rnaStar (v.2.3.0e) then with BWA (v.0.7.5a) for remaining unmapped reads, both using default parameters. Mapped reads were merged and counted using HTSeq (v.0.5.3p3) with -s yes -m intersection-strict. […] Samples were run in a single lane on an Illumina HiSEQ 2000 sequencer with a single read flow cell using 1×50-bp reads and a 6-cycle index read. Reads were mapped to the hg19 reference genome using Tophat2 v.2.0.6 with custom settings including the setting of -library-type fr- firstrand to appropriately account for the stranded nature of the protocol. […]

Cortistatin A
Rank of 4,310 (signature: GATA1/GATA2/RUNX1/FLI1/SCL Binding Sites in Mks): 100
Rank of 4,310 (signature: GATA1/SCL Binding sites in Mks): 12
